# From the supplement of paper PMC8728848
# This is one part of the list.
# B1: GS13971A-bth-447-22-447 (Bacteroides thetaiotaomicron) (protein)
# chain: EDVDNERSKGMFSASQSGFSTIEVYDLGPLNKIDLSIAKAGLEDTGGTVTFSVEQSLLDSLNNADGTSYQLLPPECYTIENATYSVSPGGDRRVTGGSLVYDPHKIYNLCGFDELKYVLPLRVSSTGTPMNSDRTATLYGFIVKEAIVRLASTGGDFVVEGGTTTSPMNLDTEISFENEWDLTTSFATKGADYVDNYNSANSTYYIPLPSDFYTLPDVTIAKGKTTGGSAISLLGETLPPGNYLLPVSLGGLSGQGDASINIDKETVANYFVIKQGGPINRDHWTVTANTEEKTGEVSAAYPHNGQTISLIDGEINTFWHSKWQGGEVAPPYEIILDMGKENSVSQLGLIARQNALTSMNLEIYAGDDGETWNLIGKYFFDGSIKTEQMVPVKACDARWIRIYIPTLGSGSSVGHLAEIYVYGTDK
# Key:
# Assay in all cases: glycan array binding signal (z-score within array); higher = stronger binding
# Conditions in all cases: glycan notation: IUPAC condensed, linker removed
# [1] = molecular target: Neu5Ac(a2-3)Gal(b1-3)GalNAc
# How it was run: (§1)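 Columns mapping to the same glycan were averaged after glycan names were converted to IUPAC-condensed notation. The data come from 3228 arrays in the Consortium for Functional Glycomics database, limited to those with an available protein sequence. Binding is reported as a within-array Z-score averaged across arrays of one protein sequence and across linkers.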
# [2] = molecular target: Neu5Ac(a2-3)Gal(b1-3)GalNAc(b1-3)Gal(a1-4)Gal(b1-4)Glc
# How it was run: as §1
# [3] = molecular target: Neu5Ac(a2-3)Gal(b1-3)GalNAc(b1-4)[Neu5Ac(a2-3)]Gal(b1-4)Glc
# How it was run: as §1
# [4] = molecular target: Neu5Ac(a2-3)Gal(b1-3)GalNAc(b1-4)[Neu5Ac(a2-8)Neu5Ac(a2-3)]Gal(b1-4)Glc
# How it was run: as §1
# [5] = molecular target: Neu5Ac(a2-3)Gal(b1-3)GalNAc6S
# How it was run: as §1
# [6] = molecular target: Neu5Ac(a2-3)Gal(b1-3)GlcNAc
# How it was run: as §1
# [7] = molecular target: Neu5Ac(a2-3)Gal(b1-3)GlcNAc(b1-2)Man
# How it was run: as §1
# [8] = molecular target: Neu5Ac(a2-3)Gal(b1-3)GlcNAc(b1-2)Man(a1-3)[GlcNAc(b1-4)][Neu5Ac(a2-3)Gal(b1-3)GlcNAc(b1-2)Man(a1-6)]Man(b1-4)GlcNAc(b1-4)GlcNAc
# How it was run: as §1
# [9] = molecular target: Neu5Ac(a2-3)Gal(b1-3)GlcNAc(b1-2)Man(a1-3)[Neu5Ac(a2-3)Gal(b1-3)GlcNAc(b1-2)Man(a1-6)]Man(b1-4)GlcNAc(b1-4)GlcNAc
# How it was run: as §1
# [10] = molecular target: Neu5Ac(a2-3)Gal(b1-3)GlcNAc(b1-3)Gal(b1-3)GlcNAc
# How it was run: as §1
# [11] = molecular target: Neu5Ac(a2-3)Gal(b1-3)GlcNAc(b1-3)Gal(b1-4)GlcNAc
# How it was run: as §1
# [12] = molecular target: Neu5Ac(a2-3)Gal(b1-3)GlcNAc(b1-3)GalNAc
# How it was run: as §1
# [13] = molecular target: Neu5Ac(a2-3)Gal(b1-3)GlcNAc(b1-4)Gal(b1-4)Glc
# How it was run: as §1
# [14] = molecular target: Neu5Ac(a2-3)Gal(b1-3)GlcNAc(b1-6)GalNAc
# How it was run: as §1
# [15] = molecular target: Neu5Ac(a2-3)Gal(b1-3)GlcNAc6S
# How it was run: as §1
# [16] = molecular target: Neu5Ac(a2-3)Gal(b1-3)[Fuc(a1-4)]GlcNAc
# How it was run: as §1
# [17] = molecular target: Neu5Ac(a2-3)Gal(b1-3)[Fuc(a1-4)]GlcNAc(b1-3)Gal(b1-3)[Fuc(a1-4)]GlcNAc
# How it was run: as §1
# [18] = molecular target: Neu5Ac(a2-3)Gal(b1-3)[Fuc(a1-4)]GlcNAc(b1-3)Gal(b1-4)[Fuc(a1-3)]GlcNAc
# How it was run: as §1
# [19] = molecular target: Neu5Ac(a2-3)Gal(b1-3)[GlcNAc(b1-6)]GalNAc
# How it was run: as §1
# [20] = molecular target: Neu5Ac(a2-3)Gal(b1-3)[Neu5Ac(a2-6)]GalNAc
# How it was run: as §1
# [21] = molecular target: Neu5Ac(a2-3)Gal(b1-3)[Neu5Ac(a2-6)]GlcNAc(b1-3)[Fuc(a1-3)[Gal(b1-4)]GlcNAc(b1-6)]Gal(b1-4)Glc
# How it was run: as §1
# [22] = molecular target: Neu5Ac(a2-3)Gal(b1-3)]Neu5Ac(a2-3)Gal(b1-4)]GlcNAc
# How it was run: as §1
# Neu5Ac(a2-3)Gal(b1-4)Glc = molecular target: Neu5Ac(a2-3)Gal(b1-4)Glc
# How it was run: as §1
# [23] = molecular target: Neu5Ac(a2-3)Gal(b1-4)GlcNAc
# How it was run: as §1
# [24] = molecular target: Neu5Ac(a2-3)Gal(b1-4)GlcNAc(b1-2)Man
# How it was run: as §1
# [25] = molecular target: Neu5Ac(a2-3)Gal(b1-4)GlcNAc(b1-2)Man(a1-3)[GlcNAc(b1-4)][Neu5Ac(a2-3)Gal(b1-4)GlcNAc(b1-2)Man(a1-6)]Man(b1-4)GlcNAc(b1-4)GlcNAc
# How it was run: as §1
# [26] = molecular target: Neu5Ac(a2-3)Gal(b1-4)GlcNAc(b1-2)Man(a1-3)[Neu5Ac(a2-3)Gal(b1-4)GlcNAc(b1-2)Man(a1-6)]Man(b1-4)GlcNAc(b1-4)GlcNAc
# How it was run: as §1
# [27] = molecular target: Neu5Ac(a2-3)Gal(b1-4)GlcNAc(b1-2)Man(a1-3)[Neu5Ac(a2-3)Gal(b1-4)GlcNAc(b1-2)Man(a1-6)]Man(b1-4)GlcNAc(b1-4)[Fuc(a1-6)]GlcNAc
# How it was run: as §1
# [28] = molecular target: Neu5Ac(a2-3)Gal(b1-4)GlcNAc(b1-2)Man(a1-3)[Neu5Ac(a2-6)Gal(b1-4)GlcNAc(b1-2)Man(a1-6)]Man(b1-4)GlcNAc(b1-4)GlcNAc
# How it was run: as §1
# [29] = molecular target: Neu5Ac(a2-3)Gal(b1-4)GlcNAc(b1-2)[Neu5Ac(a2-3)Gal(b1-4)GlcNAc(b1-4)]Man(a1-3)[GlcNAc(b1-4)][Neu5Ac(a2-3)Gal(b1-4)GlcNAc(b1-2)[Neu5Ac(a2-3)Gal(b1-4)GlcNAc(b1-6)]Man(a1-6)]Man(b1-4)GlcNAc(b1-4)GlcNAc
# How it was run: as §1
# [30] = molecular target: Neu5Ac(a2-3)Gal(b1-4)GlcNAc(b1-2)[Neu5Ac(a2-3)Gal(b1-4)GlcNAc(b1-4)]Man(a1-3)[GlcNAc(b1-4)][Neu5Ac(a2-3)Gal(b1-4)GlcNAc(b1-4)Man(a1-6)]Man(b1-4)GlcNAc(b1-4)GlcNAc
# How it was run: as §1
# [31] = molecular target: Neu5Ac(a2-3)Gal(b1-4)GlcNAc(b1-2)[Neu5Ac(a2-3)Gal(b1-4)GlcNAc(b1-6)]Man(a1-6)[Neu5Ac(a2-3)Gal(b1-4)GlcNAc(b1-2)Man(a1-3)]Man(b1-4)GlcNAc(b1-4)GlcNAc
# How it was run: as §1
# [32] = molecular target: Neu5Ac(a2-3)Gal(b1-4)GlcNAc(b1-2)[Neu5Ac(a2-3)Gal(b1-4)GlcNAc(b1-6)]Man(a1-6)[Neu5Ac(a2-3)Gal(b1-4)GlcNAc(b1-2)Man(a1-3)][GlcNAc(b1-4)]Man(b1-4)GlcNAc(b1-4)GlcNAc
# How it was run: as §1
# [33] = molecular target: Neu5Ac(a2-3)Gal(b1-4)GlcNAc(b1-3)Gal
# How it was run: as §1
# [34] = molecular target: Neu5Ac(a2-3)Gal(b1-4)GlcNAc(b1-3)Gal(b1-3)GlcNAc
# How it was run: as §1
# [35] = molecular target: Neu5Ac(a2-3)Gal(b1-4)GlcNAc(b1-3)Gal(b1-4)GlcNAc
# How it was run: as §1
# [36] = molecular target: Neu5Ac(a2-3)Gal(b1-4)GlcNAc(b1-3)Gal(b1-4)GlcNAc(b1-2)Man(a1-3)[Neu5Ac(a2-3)Gal(b1-4)GlcNAc(b1-3)Gal(b1-4)GlcNAc(b1-2)Man(a1-6)]Man(b1-4)GlcNAc(b1-4)GlcNAc
# How it was run: as §1
binder,measurement,setting,value
B1,glycan array binding signal (z-score),[1],0.032
same,glycan array binding signal (z-score),[2],0.068
same,glycan array binding signal (z-score),[3],-0.308
same,glycan array binding signal (z-score),[4],1
same,glycan array binding signal (z-score),[5],-1.4
same,glycan array binding signal (z-score),[6],0.768
same,glycan array binding signal (z-score),[7],-0.341
same,glycan array binding signal (z-score),[8],-0.93
same,glycan array binding signal (z-score),[9],-0.673
same,glycan array binding signal (z-score),[10],-1.14
same,glycan array binding signal (z-score),[11],-0.456
same,glycan array binding signal (z-score),[12],-0.696
same,glycan array binding signal (z-score),[13],-0.879
same,glycan array binding signal (z-score),[14],-1.04
same,glycan array binding signal (z-score),[15],-0.407
same,glycan array binding signal (z-score),[16],-0.724
same,glycan array binding signal (z-score),[17],0.009
same,glycan array binding signal (z-score),[18],0.015
same,glycan array binding signal (z-score),[19],0.601
same,glycan array binding signal (z-score),[20],0.217
same,glycan array binding signal (z-score),[21],-1.23
same,glycan array binding signal (z-score),[22],-0.166
same,glycan array binding signal (z-score),Neu5Ac(a2-3)Gal(b1-4)Glc,0.359
same,glycan array binding signal (z-score),[23],-0.377
same,glycan array binding signal (z-score),[24],-1.12
same,glycan array binding signal (z-score),[25],-0.255
same,glycan array binding signal (z-score),[26],-0.197
same,glycan array binding signal (z-score),[27],-0.181
same,glycan array binding signal (z-score),[28],-0.746
same,glycan array binding signal (z-score),[29],-0.7
same,glycan array binding signal (z-score),[30],-0.553
same,glycan array binding signal (z-score),[31],1.47
same,glycan array binding signal (z-score),[32],-0.94
same,glycan array binding signal (z-score),[33],-0.386
same,glycan array binding signal (z-score),[34],-0.335
same,glycan array binding signal (z-score),[35],1.45
same,glycan array binding signal (z-score),[36],0.477

# Looked up one by one from the entries so far (two):
binder,measurement,setting,value
B1,glycan array binding signal (z-score),[35],1.45
same,glycan array binding signal (z-score),[30],-0.553
